Measured values from PubChem BioAssay AID493014 (National Center for Advancing Translational Sciences (NCATS), 2011).
Some of the results follow. Shown are side measurements of this screen, not its main read-out; they come without a call. The list favours compounds with an active or inconclusive main result. The note in brackets gives the kind of curve behind each potency; many fits are weak.

Assay: qHTS Assay to Find Inhibitors of Chronic Active B-Cell Receptor Signaling
Conditions: ABC-DLBCL IkBa-CBG/CBR reporter, luminescence ratio (green luciferase fused to IkBa over red control in TMD8 lymphoma cells), 4 h
Procedure, shortened: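 Concentration-response series (up to 46 uM) were applied to TMD8 dual-reporter cells for 4 h at 37C with doxycycline. Green/red ratio, after filter-overlap correction, defined %Activity; red signal alone was normalised to basal cells and zero luminescence.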

[1] = measured here: CBR red luminescence, cell number

Row | SMILES | AC50 [1] | AC50 (measured here: IkBa-CBG green luminescence)
1 | Cc1ccc(NC(=O)c2cccc(S(=O)(=O)N(C)c3ccccc3)c2)cc1S(=O)(=O)N1CCOCC1 | 0.411 µM [rising, full curve, poor fit] | –
2 | Cc1c(Cl)cccc1NC(=S)N1CCN(c2ccccn2)CC1 | 35.5 µM [rising, single point] | –
3 | COc1nnc(-c2ccc(C)c(S(N)(=O)=O)c2)c2ccccc12 | 3.55 µM [rising, partial curve] | –
4 | Cn1c(O)c(C2=c3ccccc3=NC2=O)sc1=Nc1ccc(Cl)cc1 | 5.8 µM [falling, partial curve] | –
5 | CC(=O)Nc1sc2c(c1C#N)CCC(C)C2 (stereo unspecified) | 11.2 µM [rising, partial curve, poor fit] | –
6 | Cc1ccc[n+](CC2OCc3ccccc3CO2)c1 | 1.26 µM [rising, full curve, poor fit] | –
7 | N#Cc1nc(-c2ccc(OCc3ccc(Cl)cc3)cc2)oc1NCc1cccnc1 | 0.282 µM [rising, full curve, poor fit] | –
8 | CCOc1ccc(NC(=S)Nc2cc(-c3ccccc3)[nH]n2)cc1 | 0.631 µM [falling, full curve, poor fit] | –
9 | C/C(=N/NC(=O)c1ccoc1C)C12CC3CC(CC(C3)C1)C2 | 20.6 µM [falling, partial curve] | –
10 | CCOc1cc2nc(-c3ccc(OC)c(OC)c3)nc(N3CCOCC3)c2cc1OC | 2.82 µM [falling, full curve, poor fit] | –
11 | Cc1cc(C)c2c(c1)c(C)cc1nnc(SCC(=O)c3cccs3)n12 | 35.5 µM [falling, single point] | –
12 | N#CC1=C(N)Oc2cc(O)c(C=Nc3ccccc3)cc2C1c1ccccc1 (stereo unspecified) | 13 µM [falling, partial curve] | –
13 | N#Cc1ccc(COC(=O)C2CCC(=O)N2)cc1 (stereo unspecified) | 29.1 µM [rising, single point] | –
14 | O=S(=O)(NCCc1csc2nc(-c3ccccc3)nn12)c1cccs1 | 7.08 µM [falling, partial curve, poor fit] | –
15 | COc1ccc(NC(=S)N(C)CC2COc3ccccc3O2)cc1 (stereo unspecified) | 35.5 µM [rising, single point] | –
16 | CCCn1c(N2CCN(C(=O)NCc3ccccc3)CC2)nc2ccccc21 | 25.1 µM [falling, single point] | –
17 | O=C(NCc1ccc2c(c1)OCO2)NC1CCCCC1 | 12.6 µM [rising, partial curve, poor fit] | –
18 | CCCc1cc(=O)oc2cc(C)cc(O)c12 | 2.31 µM [rising, full curve] | –
19 | CC(=O)Nc1sc2c(c1C(c1ccccc1Cl)N1CCN(CCO)CC1)CCCC2 (stereo unspecified) | 4.47 µM [falling, partial curve, poor fit] | –
20 | CC1CCN(CC2CCN(C(=O)NCc3ccc(F)cc3)CC2)CC1 | 3.16 µM [falling, partial curve] | –
21 | O=C(O)c1ccc(Cn2cnc3cccnc32)cc1 | 11.2 µM [rising, partial curve, poor fit] | –
22 | Cc1cc(C)nc(NC(=O)c2cc3ccccc3o2)n1 | 15.8 µM [falling, single point] | –

Quoted at random: five compounds from above.
Row | SMILES | AC50 [1] | AC50 (measured here: IkBa-CBG green luminescence)
7 | N#Cc1nc(-c2ccc(OCc3ccc(Cl)cc3)cc2)oc1NCc1cccnc1 | 0.282 µM [rising, full curve, poor fit] | –
6 | Cc1ccc[n+](CC2OCc3ccccc3CO2)c1 | 1.26 µM [rising, full curve, poor fit] | –
1 | Cc1ccc(NC(=O)c2cccc(S(=O)(=O)N(C)c3ccccc3)c2)cc1S(=O)(=O)N1CCOCC1 | 0.411 µM [rising, full curve, poor fit] | –
18 | CCCc1cc(=O)oc2cc(C)cc(O)c12 | 2.31 µM [rising, full curve] | –
21 | O=C(O)c1ccc(Cn2cnc3cccnc32)cc1 | 11.2 µM [rising, partial curve, poor fit] | –

(cont.)

Row | SMILES | AC50 [1] | AC50 (measured here: IkBa-CBG green luminescence)
23 | O=C(Nc1nnc(C2=COCCO2)o1)c1ccc(Br)cc1 | 35.5 µM [falling, single point] | –
24 | O=C(N1CCCCCC1)N1CCN(S(=O)(=O)N2CCCCC2)CC1 | 0.731 µM [rising, partial curve, poor fit] | 6.51 µM [rising, partial curve, poor fit]
25 | COc1cc(/C=C/C(=O)c2ccc3c(c2)OCCO3)cc(OC)c1OC | 17.8 µM [falling, partial curve, poor fit] | –
26 | Cc1cc(/C=C2/C(=O)NN(c3ccccc3)C2=O)c(C)n1-c1cccc(O)c1 | 9.2 µM [falling, partial curve, poor fit] | –
27 | O=C(NNC(=O)c1ccc(Cl)c(Cl)c1)c1cccnc1 | 17.8 µM [falling, partial curve] | –
28 | CCCS(=O)(=O)NCCc1cc2cc(C)c(C)cc2[nH]c1=O | 2.31 µM [rising, full curve] | –
29 | O=C(c1ccc(-c2nc3ccccc3s2)o1)N1CCN(c2ccccc2O)CC1 | 10 µM [falling, partial curve, poor fit] | –
30 | CCOC(=O)CNC(=O)c1sc(NC(=O)c2cccc(F)c2)nc1C | 0.291 µM [falling, partial curve, poor fit] | –
31 | COc1ccc(C(=O)Nc2ccccc2C(=O)NCCN2CCOCC2)cc1 | 0.00461 µM [rising, full curve, poor fit] | –
32 | CC(C)Cn1c2c(c(O)c(C(=O)Nc3ccc(F)cc3)c1=O)CCCC2 | 2.24 µM [rising, full curve, poor fit] | –
33 | CCCC(C(=O)Nc1cccc(S(=O)(=O)N2CCCC2)c1)c1ccccc1 (stereo unspecified) | 16.4 µM [falling, single point] | –
34 | CC(OC(=O)c1cccnc1SCc1cc(=O)n2ccccc2n1)c1ccccn1 (stereo unspecified) | 8.2 µM [falling, partial curve, poor fit] | –
35 | CCOc1ccc(CCNC(=O)COC(=O)COc2ccc(Cl)cc2)cc1OCC | 3.66 µM [rising, full curve, poor fit] | –
36 | COc1ccc(N2CC(NC(=O)c3cccs3)CC2=O)cc1 (stereo unspecified) | 17.8 µM [falling, single point] | –
37 | COc1ccccc1NC(=O)Cc1nnc(SCC(=O)c2ccc(F)cc2)n1C | 2 µM [falling, partial curve, poor fit] | –
38 | O=S(=O)(c1cccc(C(F)(F)F)c1)N(CCCN1CCOCC1)Cc1cccs1 | 35.5 µM [falling, single point] | –
39 | Cc1nc(NCCc2cnc[nH]2)c2oc3ccccc3c2n1 | 1 µM [falling, full curve, poor fit] | –
40 | C(=C\c1ccco1)/c1ccc2ccccc2n1 | 1.26 µM [rising, full curve, poor fit] | –
41 | O=C(NC(=S)Nc1ccc2c(c1)OCCO2)c1cccc(Br)c1 | 4.61 µM [rising, partial curve, poor fit] | –
42 | COc1ccccc1Nc1nnc(SCC(=O)NC(=O)Nc2ccc3c(c2)OCCO3)s1 | 0.164 µM [rising, full curve, poor fit] | –
43 | CCCCn1nnc(NC(=O)Cc2ccc(Cl)cc2)n1 | 18.4 µM [falling, single point] | –
44 | O=[N+]([O-])c1cc(Br)c(O)c(C=Nc2ccc(N3CCOCC3)cc2)c1 | 15.8 µM [rising, partial curve, poor fit] | –

Row | SMILES | AC50 [1] | AC50 (measured here: IkBa-CBG green luminescence)
45 | O=C(O)CCC(=O)Nc1ccc2c(c1)oc1ccccc12 | 0.058 µM [falling, full curve] | –
46 | COc1ccc(-c2cc(C(F)(F)F)n3nc(C(=O)N4CCN(C(=O)c5ccco5)CC4)cc3n2)cc1 | 10 µM [rising, partial curve, poor fit] | –
47 | CCOc1ccc(S(=O)(=O)N2CCOCC2)cc1NC(=O)CN1C(=O)NC(C)(c2ccccc2)C1=O (stereo unspecified) | 14.6 µM [rising, single point] | –
48 | Cc1ccccc1NC(=O)c1ccc(S(=O)(=O)C(F)F)cc1 | 29.1 µM [falling, single point] | –
49 | COC(=O)c1cc(O)c(OCc2ccccc2)c(O)c1 | 14.6 µM [rising, partial curve, poor fit] | –
50 | Cc1cc(/C=N/NC(=O)c2ccc(O)cc2)c(C)n1CC(C)C | 1.78 µM [falling, full curve] | –
51 | CCS(=O)(=O)N1CCN(c2ccc([N+](=O)[O-])c(NCc3cccnc3)c2)CC1 | 20 µM [rising, partial curve] | –
52 | CCCc1ccc(C(=O)[C@@H]2[C@@H](C(C)=O)N3c4ccc(F)cc4C=C[C@@H]3[C@@]23C(=O)Nc2ccccc23)cc1 | 0.316 µM [rising, partial curve, poor fit] | –
53 | COc1cccc(NC(=O)CN(C)C(=O)c2csc3c2CCCC3)c1 | 23.1 µM [falling, single point] | –
54 | CCc1ccccc1NC(=O)c1cnn(-c2ccccc2)c1C | 10 µM [falling, partial curve] | –
55 | C=CCn1c(SCc2c(C)noc2C)nc2sc3c(c2c1=O)CCCC3 | 6.31 µM [rising, single point] | –
56 | COc1ccc(NC(=O)c2cccs2)cc1OC | 23.1 µM [falling, partial curve] | –
57 | O=C(NCc1ccccc1F)c1ccc(S(=O)(=O)Nc2cccc(C(F)(F)F)c2)cc1 | 29.1 µM [falling, single point] | –
58 | O=C(N/N=C/c1ccc[nH]1)c1ccc(Cl)cc1 | 29.1 µM [falling, single point] | –
59 | O=C1CC(Cc2ccccc2)C(=O)N1CCc1ccc2c(c1)OCO2 (stereo unspecified) | 2.91 µM [rising, single point] | –
60 | COc1ccc(-c2nn(CCC#N)cc2C=C(C#N)C#N)cc1 | 10 µM [falling, single point] | –
61 | O=C(CN(C(=O)Cn1nnc(-c2ccc(F)cc2)n1)c1ccc(F)cc1)NC1CCCC1 | 39.8 µM [falling, partial curve, poor fit] | –
62 | COc1ccccc1C1=NOC(Cn2c(NCCCO)nc3c2c(=O)n(C)c(=O)n3C)C1 (stereo unspecified) | 3.98 µM [rising, partial curve, poor fit] | –
63 | CCOc1ccccc1N1CCN(C(=O)CSc2ccc3c(c2)OCCO3)CC1 | 29.1 µM [rising, single point] | –
64 | O=C(NNC1=Nc2ccccc2SC1)c1ccc(F)cc1 | 0.501 µM [rising, full curve] | –
65 | CCCCNc1nc(-c2ccccc2)nc(-n2ccnc2)n1 | 0.103 µM [falling, full curve, poor fit] | –
